Values quoted from earlier work in paper PMC9740255 (Cells, 2022).

Target: hNET
Parameters: method as in ref 32 (Tatsumi et al. 1997)
Conditions: footnote a: hNET in HEK293 cells, [3H]nisoxetine; ref 32 (Tatsumi et al. 1997); read-out: NET Ki; cited from earlier work

## CNCCC(Oc1ccc(C(F)(F)F)cc1)c1ccccc1 (stereo not shown) [Fluoxetine]
  Ki: 240 ± 10 nM
